At least one structure is not confirmed: it was looked up by name or label, or the drawing left a doubt.
Molecular target: proteasome activity in blood cells (Mus musculus (Mouse), UniProt O55234)
Experiment: In-vivo pharmacodynamics: proteasome activity in blood cells
Details: ICR mice, oral single dose 5 mg/kg, 24 hrs after administration
Method: The compound designed in the present invention can be used to treat malignant tumors of the blood system, so the efficacy of the compound was evaluated by detecting the activity of the proteasome in the blood after single administration, and the in-vivo pharmacodynamic study can be carried out by blood sampling at different time points.
1. 8 week-old ICR mice purchased from Shanghai Bikai Laboratory Animal Co., Ltd., were transferred to a barrier system to adapt to the environment for one week.
2. The animals were divided into three groups, including a positive control group (MLN9708) and two experimental groups (IV-9, V-9A), each group having 3 animals.
3. Before administration, 100 μL of blood was sampled from each animal from the orbital venus plexus and used as the blank control, and the proteasome activity measured in blood cells in this sample was taken as 100%. 1 and 24 hrs after administration, blood was sampled from the orbital venus plexus, and the proteasome activity in blood cells was detected. The inhibitory effect of the drug on proteasome activity and recovery of proteasome activity in blood was obtained by comparison with the data at time 0.
4. […]
5. […] A cell lysing solution was added for protein quantification to correct the detected value. […] The dilution was further reacted with the fluorescent peptide substrate to detect the proteasome activity on a microplate reader.

Chains of the proteins cited; added tags and fusions are not shown. Residues count along the entry.
UniProt O55234, 60-264: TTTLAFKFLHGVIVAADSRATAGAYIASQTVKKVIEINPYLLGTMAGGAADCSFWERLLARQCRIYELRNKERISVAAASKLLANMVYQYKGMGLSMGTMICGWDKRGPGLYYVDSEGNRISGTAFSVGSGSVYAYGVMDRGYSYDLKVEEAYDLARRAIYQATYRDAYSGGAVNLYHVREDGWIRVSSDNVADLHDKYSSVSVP

## CC(C)C[C@H](NC(=O)CNC(=O)c1cc(Cl)ccc1Cl)B1OC(=O)CC(CC(=O)O)(C(=O)O)O1 (stereo partly shown) [MLN9708, reference compound]
  proteasome activity in blood cells recovered, of the activity in the control group: 80%

Reference: patent US11542283B2, “Synthesis of peptide borate ester compound and use thereof” (JIANGSU CHIA TAI FENGHAI PHARMACEUTICAL CO., LTD., priority 2018, dated 2023)
